# Source: the supplement of paper PMC8104966
# The other results are listed elsewhere or left out. This data set is noisy: repeats of one test often differ as much as different tests do.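 U2OS cells expressing ACE2 were combined with U2OS cells expressing full-length spike, and imaging quantified fusion as the fraction of nuclei displaying both cell types' fluorescent markers. Non-toxic compounds with a fusion z-score under -3, i.e., over three standard deviations below the plate's DMSO wells, are called inhibitory hits.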
# Tested on: U2OS ACE2 x SARS-CoV-2 spike co-culture
# Assay: cell-cell fusion (fraction fused) z-score vs plate DMSO control; higher = more fusion
# Settings: 30 µM; 5 h; toxicity class: non-toxic, passed QC
row,SMILES,cell-cell fusion (z-score)
1,COc1ccc(-c2cc(=O)c3c(OC)c(OC)c(OC)c(OC)c3o2)cc1,inactive: 1.92
2,Cc1cc(N)c2ccccc2[n+]1CCCCCCCCCC[n+]1c(C)cc(N)c2ccccc21.[Cl-].[Cl-],inactive: 3.23
3,Nc1ccn(C2O[C@H](CO)[C@@H](O)[C@@H]2O)c(=O)n1 (some centres undefined),inactive: 0.0918
4,CN(C)[C@@H]1C(O)=C(C(N)=O)C(=O)[C@@]2(O)C(O)=C3C(=O)c4c(O)cccc4[C@@](C)(O)[C@H]3[C@H](O)[C@@H]12.Cl,inactive: 1.95
5,CC(C)OC(=O)C(C)(C)Oc1ccc(C(=O)c2ccc(Cl)cc2)cc1,inactive: 0.746
6,CC(C)OC(=O)C(C)(C)Oc1ccc(C(=O)c2ccc(Cl)cc2)cc1 [Fenofibrate],inactive: 4.18
7,O=C(NC(=O)c1c(F)cccc1F)Nc1ccc(Cl)cc1,inactive: 3.08
8,COc1cccc2c1C(=O)c1c(O)c3c(c(O)c1C2=O)C[C@@](O)(C(=O)CO)C[C@@H]3OC1C[C@H](N)[C@H](O)[C@H](C)O1 (some centres undefined),inactive: 3.4
9,Br.COc1ccc2c3c1O[C@H]1C[C@@H](O)C=C[C@@]31CCN(C)C2 [Galanthamine HBr],inactive: 0.216
10,C=C1C2CC[C@@]3(C)[C@H](c4ccoc4)OC(=O)C[C@]13O[C@H]1CC(O)C(C)(C)C(CC(=O)OC)[C@@]21C (stereo partly drawn) [3alpha-HYDROXY-3-DEOXYANGOLENSIC ACID METHYL ESTER],inactive: 2.27
11,O=C(O)CCCCCCCC(O)C(O)CCCCCCO (centres undefined),inactive: 2.91
12,CC(C)(CO)[C@@H](O)C(=O)NCCC(=O)[O-].[Na+] [PANTOTHENIC ACID(d) Na salt],inactive: 1.57
13,CCCCC(=O)O[C@]1(C(=O)CO)CC[C@H]2[C@@H]3CCC4=CC(=O)CC[C@]4(C)[C@H]3[C@@H](O)C[C@@]21C,inactive: 0.17
14,CC(CC(C(N)=O)(c1ccccc1)c1ccccc1)N(C)C.O=S(=O)(O)O (centres undefined),inactive: 2.02
15,O=c1c(-c2cc(O)c(O)c(O)c2)coc2cc(O)c(O)c(O)c12,inactive: 1.65
16,O=C(Nc1ccccc1)c1ccccc1O,inactive: -1.27
17,COc1ccc2oc(-c3ccccc3)c(OC)c(=O)c2c1,inactive: -1.05
18,COc1ccc(S(=O)(=O)Nc2nc(-c3cccc([N+](=O)[O-])c3)cs2)cc1OC,inactive: 2.39
19,COc1cc(Nc2ncc(F)c(Nc3ccc4c(n3)N(COP(=O)([O-])[O-])C(=O)C(C)(C)O4)n2)cc(OC)c1OC.[Na+].[Na+],inactive: 1.88
20,CC(=O)c1cc2ccccc2oc1=O,inactive: 3.68
21,Cl.N=C(N)c1ccccc1 [Benzamidine hydrochloride],inactive: 0.223
22,Cc1cccc(-c2n[nH]cc2-c2ccc3ncccc3n2)n1,inactive: 2.28
23,O=S(=O)([O-])CCSSCCS(=O)(=O)[O-].[Na+].[Na+] [Dimesna],inactive: 1.21

row,SMILES,cell-cell fusion (z-score)
1,CC(Oc1c(Cl)cccc1Cl)C1=NCCN1 (centres undefined) [Lofexidine],inactive: 2.69
2,CC(=O)NC1CCSC1=O (centres undefined),inactive: 3.65
3,CCCc1cc(C(N)=S)ccn1,inactive: 0.773
4,Nc1nc(N)c2nc(-c3ccccc3)c(N)nc2n1 [Triamterene],inactive: -2.83
5,O=C([O-])[C@H](O)[C@H](O)[C@@H](O)[C@H](O)[C@H](O)CO.O=C([O-])[C@H](O)[C@H](O)[C@@H](O)[C@H](O)[C@H](O)CO.[Ca+2] [Calcium α-D-heptagluconate hydrate],inactive: 3.29
6,CC(=O)O[C@H]1C[C@@H]2CC[C@@H]3[C@H](CC[C@@]4(C)[C@H]3C[C@H]([N+]3(C)CCCCC3)[C@@H]4OC(C)=O)[C@@]2(C)C[C@@H]1[N+]1(C)CCCCC1.[Br-].[Br-] [Pancuronium bromide],inactive: 2.71
7,Cl.NCC(O)C1CCCCCCC1 (centres undefined) [2-Cyclooctyl-2-hydroxyethylamine hydrochloride],inactive: 2.37
8,C=Cc1cc2oc(-c3ccc(O)c(F)c3)nc2cc1O,inactive: 0.31
9,CCc1cncnc1N1CCN(Cc2nc3cc(C(F)(F)F)ccc3[nH]2)CC1,inactive: -1.39
10,C[C@](N)(Cc1ccc(O)c(O)c1)C(=O)O [L-(-)-α-Methyldopa],inactive: 3.37
11,O=C([O-])Cc1c[nH]cn1.[Na+],inactive: 1.54
12,CCCn1c(=O)c(C)cn2nc(N)nc12,inactive: 1.24
13,N[C@@H](CCC(=O)O)C(=O)[O-].[Na+] [L-Glutamic acid monosodium salt],inactive: 2.22
14,Nc1nc(=O)c2c(CCc3ccc(C(=O)N[C@@H](CCC(=O)[O-])C(=O)[O-])cc3)c[nH]c2[nH]1.[Na+].[Na+],inactive: 2.48
15,COc1ccc(-c2ccc3c(N4CCOCC4)nc(N4C[C@@H](C)O[C@@H](C)C4)nc3n2)cc1CO,inactive: 0.88
16,"Cn1cnc([N+](=O)[O-])c1Sc1ncnc2nc[nH]c12 [Azathioprine (Azasan, Imuran)]",inactive: 1.6
17,CN1C[C@H](CNC(=O)OCc2ccccc2)C[C@@H]2c3cccc4c3c(cn4C)C[C@H]21 [Metergoline],inactive: 1.66
18,Cc1nc2c([nH]1)CCN(C(=O)c1ccc(NC(=O)c3ccccc3-c3ccccc3)cc1)c1ccccc1-2.Cl [Conivaptan hydrochloride],inactive: 0.992
19,CON(C)C(=O)[C@H](O)[C@H](Cc1ccccc1)NC(=O)c1cc2cc(Cl)ccc2[nH]1,inactive: -2.69
20,"NC(C(=O)O)C(O)C(=O)O (stereo not drawn) [d,l-threo-3-HYDROXYASPARTIC ACID]",inactive: 2.26
21,Cc1cccc([C@H](C)c2cnc[nH]2)c1C.Cl [Dexmedetomidine HCl],inactive: 3.3
22,CN1CCN(CCCN2c3ccccc3Sc3ccc(Cl)cc32)CC1.O=S(=O)(O)CCS(=O)(=O)O,inactive: -1.15
23,Br.CCCN1CC[C@@H]2c3cc(O)ccc3CC[C@@H]21 [cis(+/-)-8-OH-PBZI hydrobromide],inactive: 3.02

# Given with tabs: entries from further up
row	SMILES	cell-cell fusion (z-score)
3	CCCc1cc(C(N)=S)ccn1	inactive: 0.773
4	Nc1nc(N)c2nc(-c3ccccc3)c(N)nc2n1 [Triamterene]	inactive: -2.83
16	Cn1cnc([N+](=O)[O-])c1Sc1ncnc2nc[nH]c12 [Azathioprine (Azasan, Imuran)]	inactive: 1.6
19	CON(C)C(=O)[C@H](O)[C@H](Cc1ccccc1)NC(=O)c1cc2cc(Cl)ccc2[nH]1	inactive: -2.69
22	CN1CCN(CCCN2c3ccccc3Sc3ccc(Cl)cc32)CC1.O=S(=O)(O)CCS(=O)(=O)O	inactive: -1.15

# Continued.

row,SMILES,cell-cell fusion (z-score)
1,O=C(c1ccc(Cl)cc1)N1CCN(c2ccc([N+](=O)[O-])c3ncccc23)CC1,inactive: -1.14
2,Cc1cc(NS(=O)(=O)c2ccc(N)cc2)no1 [Sulfamethoxazole],inactive: 1.62
3,Br.Br.CN(C)CCN(C)CCc1ccc(Cl)c(Cl)c1,inactive: 0.409
4,C[C@]12C=CC(=O)C=C1CC[C@@H]1[C@@H]2[C@@H](O)C[C@@]2(C)[C@H]1CC[C@]2(O)C(=O)COP(=O)([O-])[O-].[Na+].[Na+] [Prednisolone phosphate sodium],inactive: 3.42
5,O=C1c2ccccc2C(=O)c2ccccc21,inactive: 2.15
6,CC(=O)Oc1ccc2c(c1OC(C)=O)OCC1(O)Cc3c(cc(OC(C)=O)c(OC(C)=O)c3OC(C)=O)C21 (centres undefined),inactive: 2.08
7,CCCNC(C)C(=O)Nc1ccccc1C.Cl (centres undefined),inactive: 3.68
8,CC(C)(C)NC[C@@H](O)COc1nsnc1N1CCOCC1.O=C(O)/C=C\C(=O)O,inactive: 2.99
9,CN(C(=O)C(Cl)Cl)c1ccc(OC(=O)c2ccco2)cc1,inactive: 4.77
10,CC(C)c1c(CN(C)C(C)Cc2ccccc2)n(C)n(-c2ccccc2)c1=O (centres undefined),inactive: 3.4
11,CCC(C)(C)C(=O)O[C@@H]1C[C@@H](C)C=C2C=C[C@H](C)[C@@H](CC[C@@H]3C[C@@H](O)CC(=O)O3)[C@H]21 [Simvastatin (Zocor)],inactive: 2.51
12,CC(=O)OC1CCC23CC1(C)CCC2C(C)(C)CC3OC(C)=O (centres undefined),inactive: 2.22
13,CC[N+](CC)(CC)CCOc1cccc(OCC[N+](CC)(CC)CC)c1OCC[N+](CC)(CC)CC.[I-].[I-].[I-],inactive: 0.125
14,CC[N+](CC)(CC)CCOc1cccc(OCC[N+](CC)(CC)CC)c1OCC[N+](CC)(CC)CC.[I-].[I-].[I-] [Gallamine triethiodide],inactive: 0.978
15,CCCC[C@@H](CC)COC(=O)c1ccccc1O,inactive: 1.35
16,Cc1cc(O)c2c(c1)Cc1cccc(O)c1C2=O,inactive: 1.74
17,CCn1nc(C(=O)O)c(=O)c2cc3c(cc21)OCO3 [Cinoxacin],inactive: 1.35
18,CC(C)c1c(C(=O)Nc2ccccc2)c(-c2ccccc2)c(-c2ccc(F)cc2)n1CC[C@@H](O)C[C@@H](O)CC(=O)[O-].CC(C)c1c(C(=O)Nc2ccccc2)c(-c2ccccc2)c(-c2ccc(F)cc2)n1CC[C@@H](O)C[C@@H](O)CC(=O)[O-].[Ca+2] [Atorvastatin Calcium],inactive: 0.944
19,NC(=O)C1(N2CCCCC2)CCN(CCCC(=O)c2ccc(F)cc2)CC1,inactive: 3.47
20,CCCN(CCC)CCc1cccc2c1CC(=O)N2.Cl [Ropinirole hydrochloride],active: -3.09
21,CC(=O)[C@H]1CC[C@H]2[C@@H]3CC[C@H]4C[C@H](O)CC[C@]4(C)[C@H]3CC[C@]12C [Allopregnanolone],inactive: 1.32
22,CC[C@@H](CO)NC(=O)[C@@H]1C=C2c3cccc4c3c(cn4C)C[C@H]2N(C)C1.O=C(O)/C=C\C(=O)O,inactive: 1.22
23,CC(=O)O.O=C(NCC1CCCCN1)c1cc(OCC(F)(F)F)ccc1OCC(F)(F)F (centres undefined),inactive: 0.975
